Reference: PubChem BioAssay AID330 (DTP/NCI, 2004)
The list is a part of this screen's results and no random one: it gathers tests that were run many times, whatever their T/C, doses with no T/C, and many T/C values between a quarter and a half above the control. Further doses and runs are listed elsewhere. T/C: endpoint of the treated group in % of that of the vehicle group. Some entries give survivors of the animals treated and no T/C: the source files T/C as zero there, which appears to mark a toxic dose or a test without result, not a measured value. Some survivor counts are full or nearly so, which does not show that the dose was tolerated: the source hardly ever lists a survival T/C far under the control, and the zero likely stands for such cases as well. Survivors were counted at the toxicity check, usually on the fifth day, unless a day is given; later deaths do not show. Schedules are NCI's codes, taken here to give the interval after Q, in days (D) or hours (H), and the number of doses after X. Some entries hold several experiments; their values stand side by side, smallest first. Where survival is the endpoint, the PubChem record calls one and a half times the control and up active, and a quarter to a half above the control has no call in these data; cut-offs in other NCI protocols can differ. Some T/C values are followed by the survivors on the day toxicity was checked, most often the fifth; without a count, all were alive then.

System: P388 leukemia ip, CD2F1 mice, survival T/C
Test: NCI In Vivo Anticancer Drug Screen. Data for tumor model P388 Leukemia (intraperitoneal) in CD2F1 (CDF1) mice
Details: T/C endpoint: median survival time, higher T/C = longer survival
[1] = dose: 100.0 mg/kg/injection, schedule: Q01DX009 (ip), vehicle: Klucel (hydroxypropylcellulose) (HPC)
[2] = dose: 50.0 mg/kg/injection, schedule: Q04DX003 (ip), vehicle: water
[3] = dose: 100.0 mg/kg/injection, schedule: Q04DX003 (ip), vehicle: water
[4] = dose: 200.0 mg/kg/injection, schedule: Q01DX009 (ip), vehicle: saline
[5] = dose: 120.0 mg/kg/injection, schedule: Q01DX005 (ip), vehicle: Klucel (hydroxypropylcellulose) (HPC)
[6] = dose: 200.0 mg/kg/injection, schedule: Q01DX009 (ip), vehicle: saline with Tween-80
[7] = dose: 100.0 mg/kg/injection, schedule: Q01DX009 (ip), vehicle: saline with Tween-80
[8] = dose: 200.0 mg/kg/injection, schedule: Q01DX005 (ip), vehicle: saline with Tween-80
[9] = dose: 60.0 mg/kg/injection, schedule: Q01DX005 (ip), vehicle: saline with Tween-80
[10] = dose: 120.0 mg/kg/injection, schedule: Q01DX005 (ip), vehicle: saline with Tween-80

CN1CCc2c(c3ccccc3c3ccccc23)C1
survivor count (dose: 0.78 mg/kg/injection, schedule: Q01DX009 (ip), vehicle: Klucel (hydroxypropylcellulose) (HPC)): 6 of 6
survivor count (dose: 3.12 mg/kg/injection, schedule: Q01DX009 (ip), vehicle: Klucel (hydroxypropylcellulose) (HPC)): 6 of 6
survivor count (dose: 12.5 mg/kg/injection, schedule: Q01DX009 (ip), vehicle: Klucel (hydroxypropylcellulose) (HPC)): 6 of 6
T/C (dose: 44.0 mg/kg/injection, schedule: Q01DX009 (ip), vehicle: Klucel (hydroxypropylcellulose) (HPC)): 138 % of control [5 of 6 alive]
survivor count (dose: 66.0 mg/kg/injection, schedule: Q01DX009 (ip), vehicle: Klucel (hydroxypropylcellulose) (HPC)): 2 of 6
survivor count [1]: 0 of 6
survivor count (dose: 150.0 mg/kg/injection, schedule: Q01DX009 (ip), vehicle: Klucel (hydroxypropylcellulose) (HPC)): 0 of 6
survivor count (dose: 200.0 mg/kg/injection, schedule: Q01DX009 (ip), vehicle: Klucel (hydroxypropylcellulose) (HPC)): 0 of 6
survivor count (dose: 400.0 mg/kg/injection, schedule: Q01DX009 (ip), vehicle: Klucel (hydroxypropylcellulose) (HPC)): 0 of 6

COC(=O)c1ccccc1N1C(=O)C=CC1=O
survivor count (dose: 25.0 mg/kg/injection, schedule: Q04DX003 (ip), vehicle: saline with Tween-80): 1 of 6

O=c1[nH]c(=O)c2ncn(C3OC(CO)C(O)C3O)c2[nH]1.O=c1[nH]c(=O)c2ncn(C3OC(CO)C(O)C3O)c2[nH]1.[NH2-].[NH2-].[Pt+2] (stereo not given)
T/C [2]: 133 % of control
T/C [3]: 137 % of control
T/C [4]: 147 % of control
survivor count [4]: 3 of 3
T/C (dose: 200.0 mg/kg/injection, schedule: Q04DX003 (ip), vehicle: water): 137 % of control
survivor count (dose: 400.0 mg/kg/injection, schedule: Q01DX009 (ip), vehicle: saline): 3 of 3
T/C (dose: 400.0 mg/kg/injection, schedule: Q04DX003 (ip), vehicle: suspension in saline): 129 % of control
T/C (dose: 800.0 mg/kg/injection, schedule: Q04DX003 (ip), vehicle: suspension in saline): 134 % of control
survivor count (dose: 800.0 mg/kg/injection, schedule: Q04DX003 (ip), vehicle: water): 0 of 3

COc1ccccc1C1OC2=C(Nc3ccccc3N2)C1=O (stereo not given)
survivor count [5]: 6 of 6

CCCCCSc1ncnc2nc[nH]c12
survivor count (dose: 400.0 mg/kg/injection, schedule: Q04DX003 (ip), vehicle: saline with Tween-80): 5 of 6

COc1ccc(C(=S)NC(O)C(=O)c2ccc(Cl)cc2)cc1OC (stereo not given)
survivor count [6]: 3 of 6

CN(C)CCC[n+]1cc2c3ccccc3c(N)cc2c2ccccc21
survivor count [2]: 6 of 6
survivor count [3]: 0 of 6

C1=C(c2ccccc2)CS1
survivor count (dose: 200.0 mg/kg/injection, schedule: Q01DX001 (ip), vehicle: saline with Tween-80): 0 of 6
survivor count (dose: 400.0 mg/kg/injection, schedule: Q01DX001 (ip), vehicle: saline with Tween-80): 0 of 6

COc1cc2c(cc1OC)C1CC(OC(=O)c3ccccc3)(c3nccc4cc(OC)c(OC)cc34)CCN1CC2 (stereo not given)
survivor count [7]: 3 of 6
survivor count [6]: 1 of 6

[CH3][Pb]([CH3])([CH3])[Cl]
survivor count (dose: 0.75 mg/kg/injection, schedule: Q01DX009 (ip), vehicle: saline): 6 of 6
survivor count (dose: 6.0 mg/kg/injection, schedule: Q01DX009 (ip), vehicle: saline): 5 of 6 and 6 of 6

CC(C)CC(=O)N(CCC#N)c1ncc([N+](=O)[O-])s1
survivor count (dose: 400.0 mg/kg/injection, schedule: Q01DX001 (ip), vehicle: Klucel (hydroxypropylcellulose) (HPC)): 3 of 6

CC1CN=C(c2ccc(NC(=O)NCCCCCCCCCCCCNC(=O)Nc3ccc(C4=NCC(C)N4)cc3)cc2)N1 (stereo not given)
survivor count [8]: 1 of 6

COC(=O)c1c(COC(=O)NC(C)C)c2n(c1C)CS(=O)(=O)C2
survivor count (dose: 100.0 mg/kg/injection, schedule: Q01DX005 (ip), vehicle: saline with Tween-80): 4 of 6

CN1CCCc2cc(/C=C\c3ccnc4ccccc34)ccc21
T/C [1]: 139 % of control

O=C1c2ccc(-c3ccccc3)cc2C(=O)c2cc3c(cc21)OCO3
survivor count [9]: 6 of 6
survivor count [10]: 6 of 6
survivor count (dose: 240.0 mg/kg/injection, schedule: Q01DX005 (ip), vehicle: saline with Tween-80): 6 of 6

Cc1cccc2c1/C(=C1/c3ccccc3C(=O)c3cccc(C)c31)c1ccccc1C2=O
survivor count (dose: 200.0 mg/kg/injection, schedule: Q01DX005 (ip), vehicle: Klucel + Tween-80): 6 of 6

CC1=C2C(O)C(=O)OC3CC4C(C)(C)C(=O)CCC4(C)C(CC1)C23C (stereo not given)
survivor count (dose: 1.75 mg/kg/injection, schedule: Q01DX009 (ip), vehicle: Klucel (hydroxypropylcellulose) (HPC)): 6 of 6
survivor count (dose: 3.5 mg/kg/injection, schedule: Q01DX009 (ip), vehicle: Klucel (hydroxypropylcellulose) (HPC)): 6 of 6
survivor count (dose: 7.0 mg/kg/injection, schedule: Q01DX009 (ip), vehicle: Klucel (hydroxypropylcellulose) (HPC)): 6 of 6
survivor count (dose: 14.0 mg/kg/injection, schedule: Q01DX009 (ip), vehicle: Klucel (hydroxypropylcellulose) (HPC)): 6 of 6
survivor count (dose: 28.0 mg/kg/injection, schedule: Q01DX009 (ip), vehicle: Klucel (hydroxypropylcellulose) (HPC)): 6 of 6

Cc1[nH]c(=O)[nH]c(=O)c1/C=C/C(=O)NC(CO)CS(=O)CS(C)=O (stereo not given)
T/C (dose: 3.3 mg/kg/injection, schedule: Q01DX009 (ip), vehicle: water): 132 % of control
T/C (dose: 4.8 mg/kg/injection, schedule: Q01DX009 (ip), vehicle: water): 135 % of control
T/C (dose: 5.0 mg/kg/injection, schedule: Q01DX009 (ip), vehicle: water): 137 % of control
T/C (dose: 7.5 mg/kg/injection, schedule: Q01DX009 (ip), vehicle: water): 136 % of control
T/C (dose: 9.6 mg/kg/injection, schedule: Q01DX009 (ip), vehicle: water): 128 % of control [4 of 6 alive]
T/C (dose: 11.3 mg/kg/injection, schedule: Q01DX009 (ip), vehicle: water): 144 % of control
survivor count (dose: 19.2 mg/kg/injection, schedule: Q01DX009 (ip), vehicle: water): 1 of 6

Cc1ccc(C(=N)c2ccccc2Cc2cccc3ccccc23)c(C)c1
survivor count (dose: 400.0 mg/kg/injection, schedule: Q01DX009 (ip), vehicle: saline with Tween-80): 5 of 6

O=P(CCCCBr)(NCc1ccccc1)c1ccccc1 (stereo not given)
survivor count (dose: 400.0 mg/kg/injection, schedule: Q04DX003 (ip), vehicle: Klucel (hydroxypropylcellulose) (HPC)): 0 of 6

CC(C)NCCCNCC(=O)Nc1ccc(S(=O)(=O)c2ccc(NC(=O)CNCCCNC(C)C)cc2)cc1
survivor count (dose: 50.0 mg/kg/injection, schedule: Q01DX005 (ip), vehicle: Klucel (hydroxypropylcellulose) (HPC)): 3 of 5
survivor count (dose: 100.0 mg/kg/injection, schedule: Q01DX005 (ip), vehicle: Klucel (hydroxypropylcellulose) (HPC)): 0 of 5
survivor count (dose: 200.0 mg/kg/injection, schedule: Q01DX005 (ip), vehicle: Klucel (hydroxypropylcellulose) (HPC)): 0 of 5

CCN(CC)CCNC1CC2CCC1(C)C2(C)C (stereo not given)
survivor count [8]: 0 of 6

Cn1c2nc(=O)n(-c3ccccc3)c(=O)c-2nc2c1CCCC2
T/C (dose: 25.0 mg/kg/injection, schedule: Q01DX009 (ip), vehicle: saline with Tween-80): 135 % of control
T/C (dose: 50.0 mg/kg/injection, schedule: Q01DX009 (ip), vehicle: saline with Tween-80): 135 % of control
T/C [7]: 137 % of control

Cc1ccc2c(c1)C(=O)c1cc3c(cc1C2=O)OCO3
survivor count [9]: 6 of 6
survivor count [10]: 6 of 6

Cc1ccc(F)cc1NC(=S)NN
survivor count (dose: 60.0 mg/kg/injection, schedule: Q01DX005 (ip), vehicle: Klucel (hydroxypropylcellulose) (HPC)): 0 of 6
survivor count [5]: 0 of 6
survivor count (dose: 240.0 mg/kg/injection, schedule: Q01DX005 (ip), vehicle: Klucel (hydroxypropylcellulose) (HPC)): 0 of 6

CCOC(=O)NC(=S)Nc1ccn(C)c1
T/C (dose: 200.0 mg/kg/injection, schedule: Q04DX003 (ip), vehicle: saline with Tween-80): 128 % of control
